The whole screen tested about 300,000 compounds, of which about 3,700 (1.2%) were called active. The inconclusive results got no clear call from the source; some entries with a clear call stand among them for comparison. Calls come from the whole dose curve; tested in HEK293 cells. Where the call is inconclusive, the potency comes from a doubtful curve fit.
assay: qHTS for Inhibitors of binding or entry into cells for Lassa Virus; settings: Lassa virus pseudotype entry inhibition, cell reporter; series mostly up to 37.9 µM; note: nearly all actives have a fitted effect of over 50% in size
Potency is the fitted concentration of half-maximal effect.

| SMILES | Potency |
| --- | --- |
| Cc1ccc(C)c(NC(=S)N(C2CCCCC2)C(C)c2cccnc2)c1 (configuration not stated) | inactive |
| Cc1ccc(Cn2c(=O)n(Cc3ccccc3)c(=O)c3oc4ccccc4c32)cc1 | inactive |
| CC(=O)N1CCc2cc(S(=O)(=O)NC(Cc3ccccc3)C(=O)NCc3ccccc3)ccc21 (configuration not stated) | inactive |
| CN(C)c1ccc(/C=N/NC(=O)COc2ccccc2)cc1 | inconclusive: 35.5 µM [inhibitor, single point] |
| Clc1ccc2c(c1)C(OC1CN3CCC1CC3)c1ccccc1CS2 (configuration not stated) | inconclusive: 18.4 µM [inhibitor, single point] |
| CN1C(=O)C(Cc2nc3ccccc3c(=O)n2-c2ccccc2)c2ccccc21 (configuration not stated) | inactive |
| Cc1ccc(NS(=O)(=O)c2ccc3c(c2)oc(=O)n3C)cc1 | inactive |
| Cc1ccc(Sc2ccc(NC(=O)CCl)cc2)c(C)c1 | inconclusive: 20.6 µM [inhibitor, single point] |
| Cc1ccccc1N(CC(=O)N/N=C/c1ccc(F)cc1)C(=O)c1ccccc1 | inconclusive: 32.6 µM [inhibitor, single point] |
| CC(C)(C)c1ccc(S(=O)(=O)/N=C2\C=C(NS(=O)(=O)c3ccccc3)C(=O)c3ccccc32)cc1 | inconclusive: 25.1 µM [inhibitor, single point] |
| Cc1ccc(NC(=O)CSc2ccc(-c3ccco3)nn2)cc1 | inconclusive: 6.31 µM [inhibitor, partial curve] |
| C=CCn1c(C)cc(C(=O)CSc2nnc(Cc3ccccc3)o2)c1C | inconclusive: 23.1 µM [inhibitor, single point] |
| CCc1ccc(S(=O)(=O)Nc2cccc(-c3ccc(N4CCCCC4)nn3)c2)s1 | inconclusive: 2.82 µM [activator, single point] |
| COC(=O)c1ccc(C2NC(=S)N(c3ccccc3)C(C)=C2C(=O)Nc2ccccc2OC)cc1 (configuration not stated) | active: 6.51 µM |
| Cc1ccc(S(=O)(=O)N(C)C)cc1-n1c(SCC(=O)Nc2ccccc2)nc2ccccc2c1=O | inconclusive: 16.4 µM [inhibitor, single point] |
| Cc1ccc(S(=O)(=O)N(C)c2ccc(NS(C)(=O)=O)cc2)cc1 | inconclusive: 0.112 µM [inhibitor, full curve, poor fit] |
| CCCN(CCC)C(=O)c1ccc2c(=O)n(Cc3ccco3)c(=S)[nH]c2c1 | inactive |
| CCOC(=O)C1CCCN(c2nc3ccccc3nc2NS(=O)(=O)c2ccc(C)cc2)C1 (configuration not stated) | inconclusive: 0.794 µM [activator, full curve, poor fit] |
| O=C(N/N=C/c1ccco1)C1CC1 | inactive |
| Cc1cc(C)nc(SCC(=O)OCC(=O)N(C)c2c(N)n(Cc3ccccc3)c(=O)[nH]c2=O)n1 | inconclusive: 3.98 µM [activator, single point] |
| N#CC1=C(N)C(C#N)(C#N)[C@H](c2ccncc2)[C@H]2CN(C(=O)OCc3ccccc3)CC=C12 | inactive |
| CCn1cc(C(=O)NCc2ccco2)c(=O)c2cc(S(=O)(=O)N3CC(C)CC(C)C3)ccc21 (configuration not stated) | inconclusive: 16.4 µM [inhibitor, single point] |
| O=C(NNC(=O)c1cc2ccccc2oc1=O)c1ccccc1 | inconclusive: 7.94 µM [activator, partial curve, poor fit] |

Compounds listed so far containing an NH in an aromatic ring:

| SMILES | Potency |
| --- | --- |
| CCCN(CCC)C(=O)c1ccc2c(=O)n(Cc3ccco3)c(=S)[nH]c2c1 | inactive |
| Cc1cc(C)nc(SCC(=O)OCC(=O)N(C)c2c(N)n(Cc3ccccc3)c(=O)[nH]c2=O)n1 | inconclusive: 3.98 µM [activator, single point] |

In the list so far, these contain a Cl atom:

| SMILES | Potency |
| --- | --- |
| Clc1ccc2c(c1)C(OC1CN3CCC1CC3)c1ccccc1CS2 (configuration not stated) | inconclusive: 18.4 µM [inhibitor, single point] |
| Cc1ccc(Sc2ccc(NC(=O)CCl)cc2)c(C)c1 | inconclusive: 20.6 µM [inhibitor, single point] |

(further entries)

| SMILES | Potency |
| --- | --- |
| O=C(O)c1cc(=O)c2c(Cl)cc(Cl)cc2[nH]1 | inconclusive: 0.517 µM [inhibitor, partial curve, poor fit] |
| COC(=O)c1ccc(/C=N/NC(=O)c2cccc(F)c2)cc1 | inconclusive: 29.1 µM [inhibitor, single point] |
| c1ccc(CCNc2ncnc3c2cnn3-c2ccccc2)cc1 | inconclusive: 29.1 µM [inhibitor, single point] |
| COc1ccc(Cl)cc1NCc1nnc2n1CCCCC2 | inactive |
| C=CCOC(=O)C1=C(C)NC(=O)NC1c1ccc(OCC)cc1 (configuration not stated) | inconclusive: 35.5 µM [inhibitor, single point] |
| Cc1ccc(S(=O)(=O)n2ccc(-c3cccc(OCc4c(F)cccc4Cl)c3)n2)cc1 | inactive |
| COc1cccc2c1C(=O)c1c(O)c3c(c(O)c1C2=O)CC(O)(C(C)=NO)CC3OC1CC(N)C(O)C(C)O1 (configuration not stated) | inconclusive: 3.16 µM [inhibitor, single point] |
| CC(C)(C)c1ccc(C(=O)NCC(=O)OCc2cc(=O)n3nc(C4CC4)sc3n2)cc1 | inactive |
| O=c1c2ccccc2nc(N/N=C/c2c(O)ccc3ccccc23)n1O | active: 0.631 µM |
| c1cncc(N=c2scc(-c3cccc4ccccc34)n2CCCn2ccnc2)c1 | inconclusive: 12.6 µM [inhibitor, single point] |
| CCC(C)NCCCOc1cc(Cl)ccc1Cl (configuration not stated) | inconclusive: 18.3 µM [inhibitor, partial curve] |
| Cc1ccc(S(=O)(=O)N2CCN(C(=O)c3cccs3)CC2)c(C)c1 | inconclusive: 2 µM [inhibitor, partial curve, poor fit] |
| Cc1ccc(Sc2ncccc2O)cc1 | inconclusive: 35.5 µM [inhibitor, single point] |
| Cc1ccc(C)c(-c2nn(-c3cc(N4CCN(CCO)CC4)ccc3[N+](=O)[O-])c(=O)c3ccccc23)c1 | inconclusive: 35.5 µM [inhibitor, single point] |
| O=C(/C=C/c1ccccc1)c1cc(Br)ccc(=O)c1O | inconclusive: 35.5 µM [inhibitor, single point] |
| c1ccc(CNc2ccc3ccccc3n2)nc1 | inconclusive: 0.461 µM [inhibitor, full curve, poor fit] |
| COCCNc1nnc(SC(C)C(=O)Nc2ccc(-c3nc4ccc(C)cc4s3)cc2)s1 (configuration not stated) | inconclusive: 35.5 µM [inhibitor, single point] |
| CC(C)(C)OC(=O)N1CCC(c2c(C(=O)N3CCN(c4ccccn4)CC3)cnn2-c2ccc(F)cc2F)CC1 | inconclusive: 1.41 µM [inhibitor, full curve, poor fit] |
| COc1ccc(C(=O)C(CCC(CNC(C)(C)C)C(=O)c2ccc(OC)cc2)CNC(C)(C)C)cc1 (configuration not stated) | active: 3.98 µM |
| CCCCC(CC)C(=O)Oc1ccc(O)c(C(C)(C)C)c1 (configuration not stated) | active: 10 µM |
| O=C(CC1N=C2c3ccccc3N=C(SCc3ccc(F)cc3)N2C1=O)NCCc1ccccc1 (configuration not stated) | inconclusive: 0.562 µM [inhibitor, full curve, poor fit] |
| COc1ccc2[nH]c3c(c2c1)CCN(C(=O)CCC1CCCC1)C3c1ccc(F)cc1 (configuration not stated) | inconclusive: 0.631 µM [inhibitor, full curve, poor fit] |
| CC(C)C(C(=O)Nc1ccc(S(N)(=O)=O)cc1)N1C(=O)c2ccccc2C1=O (configuration not stated) | inconclusive: 1.26 µM [activator, single point] |

| SMILES | Potency |
| --- | --- |
| O=C(COc1ccc(Cl)cc1)NNC(=O)c1ccc(=O)[nH]c1 | inconclusive: 7.08 µM [inhibitor, partial curve, poor fit] |
| O=C(NCc1ccc(Cl)cc1)C1CCN(S(=O)(=O)c2cccc3nonc23)CC1 | inactive |
| CC(=O)c1ccc(NC(=O)CSC2=Nc3ccccc3N=C(c3ccc(F)cc3)C2)cc1 | inactive |
| CC(C)Cn1cc(NC(=O)N2CCN(c3ccc(F)cc3)CC2)c2ccccc2c1=O | inconclusive: 10 µM [activator, single point] |
| CCCCn1c(=O)n(CC2CCC(C(=O)NCCCOC)CC2)c(=O)c2sccc21 (configuration not stated) | inconclusive: 3.55 µM [activator, full curve] |
| CN(CCOc1ccccc1)C(=O)C1CCC(=O)N(CCc2ccc(Cl)cc2)C1 (configuration not stated) | inactive |
| CCOc1cc(/C=N\Nc2nc(Nc3ccccc3)nc(N3CCOCC3)n2)ccc1OC(=O)c1ccco1 | inconclusive: 4.47 µM [inhibitor, full curve, poor fit] |
| Cc1ccc(-c2cc(C(=O)Nc3nccs3)c3ccccc3n2)c(C)c1 | inconclusive: 22.4 µM [inhibitor, single point] |
| NC(=O)CSc1ncnc2c1nnn2Cc1ccc(F)cc1 | inactive |
| O=C(NC1CCCCC1)C(c1cccs1)N(C(=O)c1ccco1)c1ccc2c(c1)OCCO2 (configuration not stated) | inconclusive: 31.6 µM [inhibitor, single point] |
| Cc1occc1C(=O)O/N=C(\N)c1ccccc1 | inconclusive: 25.1 µM [inhibitor, single point] |
| Oc1ccc(/C=N/N=C(c2ccccc2)c2ccccc2)c(O)c1O | inconclusive: 22.4 µM [inhibitor, single point] |
| Cc1ccc(-n2nc3c(=O)n(C(C)C(=O)NCc4ccc(OC(C)C)cc4)nc(C)c3c2C)cc1 (configuration not stated) | inconclusive: 3.55 µM [inhibitor, full curve] |
| OCC(C#CCN1CCCCC1)NCc1ccccc1 (configuration not stated) | inconclusive: 29.1 µM [inhibitor, single point] |
| Cc1cccc(CSc2nnc(-c3cccs3)n2Cc2ccco2)c1 | inactive |
| O=c1cc(-c2ccco2)oc2c1ccc1ccccc12 | inconclusive: 14.1 µM [activator, single point] |
| Cc1ccc(S(=O)(=O)N2CCN(C)CC2)cc1[N+](=O)[O-] | inactive |
| N#Cc1c(C(F)(F)F)cc(-c2ccccc2)nc1SCCN1CCOCC1 | inactive |
| CCC(Sc1nccn1C)C(=O)Nc1cccc2ccccc12 (configuration not stated) | inactive |
| CC(=O)[C@@]1(O)C(C)CC2C3C=C(C)C4=Cc5c(cnn5-c5ccccc5)C[C@]4(C)C3C(O)C[C@@]21C (some centres not stated) | inconclusive: 20 µM [inhibitor, partial curve, poor fit] |
| CC(NC(=O)COC(=O)c1ccc(N(C)C)cc1)c1ccccc1 (configuration not stated) | inconclusive: 7.94 µM [inhibitor, partial curve, poor fit] |

— PubChem BioAssay AID540256 (National Center for Advancing Translational Sciences (NCATS), 2011)
